The results are deposited in PubChem (AID1347166; NCATS, 2019).

By UniProt entry, the sequences of proteins in these tests, tags left out.
UniProt Q9UGL1, whole entry, looked up, target on record: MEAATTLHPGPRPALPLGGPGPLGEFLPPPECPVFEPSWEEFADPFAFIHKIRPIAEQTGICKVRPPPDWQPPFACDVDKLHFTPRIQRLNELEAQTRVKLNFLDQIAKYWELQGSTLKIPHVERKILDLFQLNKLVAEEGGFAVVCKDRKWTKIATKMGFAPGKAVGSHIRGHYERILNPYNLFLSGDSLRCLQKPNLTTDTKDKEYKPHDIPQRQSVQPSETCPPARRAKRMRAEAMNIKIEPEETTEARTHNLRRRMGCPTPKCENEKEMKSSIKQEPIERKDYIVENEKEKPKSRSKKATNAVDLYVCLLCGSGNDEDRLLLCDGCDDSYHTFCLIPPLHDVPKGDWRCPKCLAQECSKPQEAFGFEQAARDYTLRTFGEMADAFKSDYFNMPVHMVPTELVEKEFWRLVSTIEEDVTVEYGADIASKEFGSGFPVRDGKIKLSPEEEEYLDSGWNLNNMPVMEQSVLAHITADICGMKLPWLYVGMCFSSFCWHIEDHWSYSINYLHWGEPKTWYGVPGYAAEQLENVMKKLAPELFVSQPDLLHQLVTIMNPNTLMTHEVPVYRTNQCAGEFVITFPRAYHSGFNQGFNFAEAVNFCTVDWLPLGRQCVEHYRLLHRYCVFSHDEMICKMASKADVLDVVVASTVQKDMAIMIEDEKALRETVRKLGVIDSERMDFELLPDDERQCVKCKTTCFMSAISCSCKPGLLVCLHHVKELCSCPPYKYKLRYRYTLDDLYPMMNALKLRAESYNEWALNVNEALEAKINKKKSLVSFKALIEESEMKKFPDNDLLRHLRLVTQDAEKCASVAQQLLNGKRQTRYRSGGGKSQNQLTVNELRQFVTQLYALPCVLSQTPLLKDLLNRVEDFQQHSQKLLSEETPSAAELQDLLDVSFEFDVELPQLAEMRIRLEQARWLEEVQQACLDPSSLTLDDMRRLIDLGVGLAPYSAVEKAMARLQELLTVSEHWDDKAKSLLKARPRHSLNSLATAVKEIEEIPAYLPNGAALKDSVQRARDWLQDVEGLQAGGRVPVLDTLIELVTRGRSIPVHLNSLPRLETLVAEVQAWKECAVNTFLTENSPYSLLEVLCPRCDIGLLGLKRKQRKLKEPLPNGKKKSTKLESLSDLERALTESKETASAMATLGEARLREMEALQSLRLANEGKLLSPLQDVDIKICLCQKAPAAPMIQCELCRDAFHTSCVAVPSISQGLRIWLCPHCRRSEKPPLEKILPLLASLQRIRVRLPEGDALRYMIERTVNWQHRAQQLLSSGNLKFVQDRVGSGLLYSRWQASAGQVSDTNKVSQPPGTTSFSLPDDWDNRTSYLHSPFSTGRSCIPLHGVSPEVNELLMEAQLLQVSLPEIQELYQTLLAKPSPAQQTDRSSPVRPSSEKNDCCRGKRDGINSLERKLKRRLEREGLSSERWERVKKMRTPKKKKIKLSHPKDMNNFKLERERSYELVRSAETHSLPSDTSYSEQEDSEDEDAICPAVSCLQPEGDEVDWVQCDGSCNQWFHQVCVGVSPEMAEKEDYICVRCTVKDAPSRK

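KDM5B histone demethylase enzyme with an H3K4me3 peptide, coupled to formaldehyde dehydrogenase; the rise in NADH fluorescence over 30 minutes is read. Compounds were tested as a concentration series with a top level of 57.5 µM. The number is the fitted half-maximal inhibitory potency; a lower value means stronger inhibition of the enzyme. Calls follow the fitted curve class; compounds whose inhibition curves are partial, poorly fitted, or seen only at the top concentration are filed as inconclusive.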

Values are in µM. Every entry below has the call inconclusive. These entries are mostly ones the record files as inconclusive; other results of the assay are not listed here. Potencies fitted to partial, single-point or poorly fitting curves are rough.

Compound	potency (µM)	curve as filed
NCCc1c[nH]c2ccc(C(N)=O)cc12	31.62	inhibitor, partial curve, poor fit
CCCCNc1cc(C(=O)O)cc(S(N)(=O)=O)c1Oc1ccccc1	28.18	inhibitor, partial curve, poor fit
Cc1cc(N)c2ccccc2[n+]1CCCCCCCCCC[n+]1c(C)cc(N)c2ccccc21	28.18	inhibitor, partial curve, poor fit
O=C(O)c1cc(=O)c2ccccc2[nH]1	28.18	inhibitor, partial curve, poor fit
Brc1ccc([C@H]2CN3CCSC3=N2)cc1	17.78	inhibitor, partial curve, poor fit
CC(=O)OCC1=C(C(=O)O)N2C(=O)[C@@H](NC(=O)CCC[C@@H](N)C(=O)O)[C@H]2SC1	25.12	inhibitor, single point
CC(C)N(CCC(=O)c1ccc2ccccc2c1)Cc1ccccc1	4.467	inhibitor, full curve, poor fit
CNC[C@H](O)c1ccc(O)c(O)c1	15.85	inhibitor, partial curve, poor fit
O=C(O)Cc1ccc(O)c(O)c1	15.85	inhibitor, partial curve, poor fit
COC(=O)[C@@H](N)Cc1ccc(O)c(O)c1	17.78	inhibitor, partial curve, poor fit
Cc1ccccc1N1C(=O)c2cc(S(N)(=O)=O)c(Cl)cc2NC1C (stereo not drawn)	28.18	inhibitor, partial curve, poor fit
Nc1nc2ccc(Cl)cc2c2nc(-c3ccco3)nn12	28.18	inhibitor, partial curve, poor fit
CNCCc1ccc(O)c(O)c1	14.13	inhibitor, partial curve, poor fit
Cc1nc2sccn2c(=O)c1CCN1CCC(=C(c2ccc(F)cc2)c2ccc(F)cc2)CC1	28.18	inhibitor, single point
CN1CCc2cc(O)cc3c2[C@H]1Cc1ccc(O)c(O)c1-3	31.62	inhibitor, partial curve, poor fit
Cc1c2ccncc2c(C)c2c1[nH]c1ccccc12	19.95	inhibitor, partial curve, poor fit
CCCN(CCC)CCc1ccc(O)c(O)c1	17.78	inhibitor, partial curve, poor fit
NC(Cc1ccc(N(CCCl)CCCl)cc1)C(=O)O (stereo not drawn)	25.12	inhibitor, partial curve, poor fit
O=[N+]([O-])/C=C/c1ccc2c(c1)OCO2	3.548	inhibitor, full curve, poor fit
C=CC(=O)c1ccc(CCCCCC)cc1	10	inhibitor, partial curve, poor fit
CCCC1(C)C(C#N)(C#N)C1(C#N)C#N	10	inhibitor, partial curve, poor fit
Brc1c(NC2=NCCN2)ccc2nccnc12	19.95	inhibitor, partial curve, poor fit
N#Cc1cc([N+](=O)[O-])c2sc(C(N)=O)[n+]([O-])c2c1	17.78	inhibitor, partial curve, poor fit
CCCCCCCC/C=C\CCCCCCCC(=O)NCCO	22.39	inhibitor, partial curve, poor fit
N#C/C(=C\c1ccc(O)c(O)c1)C(=O)NCCCNC(=O)/C(C#N)=C/c1ccc(O)c(O)c1	15.85	inhibitor, partial curve, poor fit
COc1cc(/C=C(\C#N)C(=O)Nc2nnc(C(F)(F)F)s2)ccc1OCc1ccc(C(F)(F)F)cc1C(F)(F)F	12.59	inhibitor, partial curve, poor fit
CCCCC/C=C\CC(O)/C=C/c1cccc(CC(O)CCCCO)n1 (stereo not drawn)	22.39	inhibitor, partial curve, poor fit
O=C(O)CCc1nc(-c2ccccc2)c(-c2ccccc2)o1	28.18	inhibitor, partial curve, poor fit
COC(=O)C1=C(C)NC(C)=C(C(=O)OCCN(C)Cc2ccccc2)C1c1cccc([N+](=O)[O-])c1 (stereo not drawn)	31.62	inhibitor, single point
CNc1cc(NS(=O)(=O)c2ccc(N)cc2)nc(NC)n1	39.81	inhibitor, single point
N.N.O=C(O)C1(C(=O)O)CCC1.[Pt]	31.62	inhibitor, single point
Cc1[nH]c2ccc(O)cc2c1CCN	28.18	inhibitor, partial curve, poor fit
COc1ccc2c(c1O)-c1cccc3c1[C@@H](C2)N(C)CC3	31.62	inhibitor, partial curve, poor fit
NC1CCc2cc(O)c(O)cc2C1 (stereo not drawn)	17.78	inhibitor, partial curve, poor fit
CC1=C(C)C(=O)C(CCCCC#CCCCC#CCO)=C(C)C1=O	28.18	inhibitor, partial curve, poor fit
C[C@H](O)C(=O)C1=Nc2c(nc(N)[nH]c2=O)NC1	10	inhibitor, partial curve, poor fit
CC(C)COCC(CN(Cc1ccccc1)c1ccccc1)N1CCCC1 (stereo not drawn)	19.95	inhibitor, partial curve, poor fit
NS(=O)(=O)c1cccc2c1c([N+](=O)[O-])cc1nc(O)c(O)nc12	25.12	inhibitor, partial curve, poor fit
CCN(CC)CCOCCOC(=O)C1(c2ccccc2)CCCC1	22.39	inhibitor, single point
CN1CCc2ccccc2Cc2[nH]c3ccccc3c2CC1	19.95	inhibitor, partial curve, poor fit
Clc1ccc(N2CCN(Cc3cc4ccccn4n3)CC2)cc1	31.62	inhibitor, partial curve, poor fit
O=c1oc(Cl)c(Cl)c2ccccc12	10	inhibitor, partial curve, poor fit
O=c1[nH]ccc2c(O)cccc12	31.62	inhibitor, partial curve, poor fit
O=C(CCCCCN1CCN(c2ccccc2-c2ccccc2)CC1)NC1CCCc2ccccc21 (stereo not drawn)	31.62	inhibitor, single point
C=CCN1CC[C@]23c4c5ccc(O)c4O[C@H]2/C(=N/NC(=O)c2ccccc2)CC[C@@]3(O)[C@H]1C5	28.18	inhibitor, partial curve, poor fit
CCCCCCCCCCCCCCC[C@H](O)[C@H](N)CO	35.48	inhibitor, partial curve, poor fit
NC(C(=O)N[C@@H]1C(=O)N2C(C(=O)O)=C(Cl)CS[C@H]12)c1ccccc1 (stereo partly drawn)	22.39	inhibitor, partial curve, poor fit
CNC(=O)c1cc2c(cn1)[nH]c1ccccc12	28.18	inhibitor, partial curve, poor fit

Some entries from above, unchanged:

| Compound | potency (µM) | curve as filed |
|---|---|---|
| `CCCCCCCC/C=C\CCCCCCCC(=O)NCCO` | 22.39 | inhibitor, partial curve, poor fit |
| `NC(Cc1ccc(N(CCCl)CCCl)cc1)C(=O)O` (stereo not drawn) | 25.12 | inhibitor, partial curve, poor fit |
| `Cc1c2ccncc2c(C)c2c1[nH]c1ccccc12` | 19.95 | inhibitor, partial curve, poor fit |
| `NS(=O)(=O)c1cccc2c1c([N+](=O)[O-])cc1nc(O)c(O)nc12` | 25.12 | inhibitor, partial curve, poor fit |
| `O=C(CCCCCN1CCN(c2ccccc2-c2ccccc2)CC1)NC1CCCc2ccccc21` (stereo not drawn) | 31.62 | inhibitor, single point |
| `CN1CCc2cc(O)cc3c2[C@H]1Cc1ccc(O)c(O)c1-3` | 31.62 | inhibitor, partial curve, poor fit |